Source: patent publication US20070212686A1 (WHITEHEAD INSTITUTE FOR BIOMEDICAL RESEARCH, published 2007)

Target: T1, murine T-cadherin (full-length), over-expressed on cells (murine) (UniProt Q9WTR5)
T1 sequence (chain, GPI anchor at the C-terminus (said of T-cadherin in general in the background)): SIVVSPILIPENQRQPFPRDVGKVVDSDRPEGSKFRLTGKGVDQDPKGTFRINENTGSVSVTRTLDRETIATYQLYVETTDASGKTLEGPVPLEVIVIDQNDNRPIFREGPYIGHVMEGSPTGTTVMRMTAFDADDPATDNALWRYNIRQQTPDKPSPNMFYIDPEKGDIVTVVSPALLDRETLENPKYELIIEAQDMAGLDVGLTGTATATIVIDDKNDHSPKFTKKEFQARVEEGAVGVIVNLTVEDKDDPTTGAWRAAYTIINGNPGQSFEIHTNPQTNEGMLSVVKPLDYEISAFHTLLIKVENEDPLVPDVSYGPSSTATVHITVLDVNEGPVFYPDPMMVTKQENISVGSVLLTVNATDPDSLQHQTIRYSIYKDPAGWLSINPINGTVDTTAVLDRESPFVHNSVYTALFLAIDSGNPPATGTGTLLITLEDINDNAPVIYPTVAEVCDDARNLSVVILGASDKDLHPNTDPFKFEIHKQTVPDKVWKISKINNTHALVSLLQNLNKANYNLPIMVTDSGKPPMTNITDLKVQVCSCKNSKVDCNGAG
Test: FACS competition on Ba/F3 cells expressing T-cadherin against 6 nM 5'Flag-Acrp30 hexamer

eukaryotic produced, untagged Acrp30 hexamer (ligand)
binding: binds

These are yes or no findings as the source states them, for the method shown. A result given as binding can be weak or reduced; the word gives no strength.
